Usually AC50 stands for the concentration at which the activity in the assay is half-maximal.

The structures appear in SMILES notation. Some of the results follow. Shown are side measurements of this screen, not its main read-out; they come without a call. Compounds called inactive in the main read-out are mostly missing here. The note in brackets gives the kind of curve behind each potency; many fits are weak.

The assay is described as follows: IkB Signaling. The settings on record: ABC-DLBCL IkBa-CBG/CBR dual luciferase ratio (green luciferase fused to IkBa over red control in OCI-Ly3 lymphoma cells), 4 h. In short, it runs like this:
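Luminescence ratio of IκBα-fused green versus native red beetle luciferase in OCI-Ly3 cells, 4 h post-doxycycline with compound; red signal alone, scaled from basal (0%) to zero light (-100%), flagged nonspecific or cytotoxic effects.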

[1] abbreviates: measured here: control luc red channel unless noted.

Consider `O=C(c1cnc(N2CCCCC2)c2ccccc12)N1CCN(c2ccc(Cl)cc2)CC1`, for which, under setting [1], the concentration at half-maximal activity (AC50) was 31.6 µM [falling, partial curve, poor fit].

In the case of `O=C(COC(=O)c1ccc(Oc2ccccc2)cc1)Nc1nnc(-c2ccccc2)o1`, the concentration at half-maximal activity (AC50) under setting [1] was 39.8 µM [falling, single point].

`COc1ccc(CCN2CC(C(=O)NCCc3ccccc3)CC2=O)cc1OC` (stereo unspecified): the half-maximal activity concentration (AC50) under setting [1] was 20 µM [rising, partial curve, poor fit].

For `COc1ccc(OC)c(/C=C(\C#N)c2nc3ccccc3c(=O)[nH]2)c1`, under setting [1], the concentration at half-maximal activity (AC50) was 0.0501 µM [falling, full curve].

Take `O=C(CCC(=O)c1ccccc1)Nc1ccc(F)c(Cl)c1`: the AC50 under setting [1] was 39.8 µM [falling, single point].

As to `Cc1ccc(C)c(S(=O)(=O)NCCc2csc(-c3ccc(Cl)cc3)n2)c1`, the concentration at half-maximal activity (AC50) under setting [1] is 15.8 µM [falling, partial curve].

Take `Cc1cccc(NC(=O)C2CCCN(S(=O)(=O)c3ccc4c(c3)oc(=O)n4C)C2)c1` (stereo unspecified): under setting [1], the AC50 was 15.8 µM [falling, single point].

In the case of `O=S(=O)(NCCS(=O)(=O)N1CCN(c2ccccc2)CC1)c1ccc(Cl)cc1`, under setting [1], the half-maximal activity concentration (AC50) is 0.00631 µM [falling, full curve, poor fit].

In the case of `COc1ccccc1CNC(=O)c1ccoc1C`, the half-maximal activity concentration (AC50) under setting [1] was 15.8 µM [falling, partial curve].

As to `Cn1c(SCC(=O)Nc2ccccc2)nc(O)cc1=O`, the AC50 under setting [1] is 15.8 µM [falling, partial curve].

With `CCOC(=O)c1ccc2c(c1)[C@@H]1C=CC[C@@H]1[C@H](c1cccc(OC)c1OC)N2`, the AC50 under setting [1] was 31.6 µM [falling, single point].

On to `Cc1ccc(-n2nc3ccc(NC(=O)Cc4ccc(Cl)cc4)cc3n2)cc1`, for which, under setting [1], the AC50 was 0.126 µM [rising, full curve].

For the molecule `COC(=O)c1sc2cccc(F)c2c1S(=O)(=O)NCc1ccc(Cl)cc1`, under setting [1], the half-maximal activity concentration (AC50) was 5.01 µM [falling, partial curve].

With `COc1ccccc1-c1nnc2sc(COc3ccc(Cl)cc3Cl)nn12`, the half-maximal activity concentration (AC50) under setting [1] is 25.1 µM [falling, single point].

As to `Cc1ccc(CSc2ncc(Cl)c(C(=O)Oc3ccc(F)cc3)n2)cc1`, the AC50 under setting [1] was 25.1 µM [falling, single point].

As to `COc1ccccc1N1CCN(CCCNC(=O)c2cnn(-c3ccc(C)c(C)c3)c2C2CCN(C(=O)OC(C)(C)C)CC2)CC1`, the concentration at half-maximal activity (AC50) under setting [1] is 0.0398 µM [falling, full curve, poor fit].

`CCCCS(=O)(=O)c1oc(-c2ccc(F)cc2)nc1S(=O)(=O)c1ccccc1`: under setting [1], the AC50 is 3.16 µM [falling, full curve].

As to `O=C(c1ccc2c(c1)N(Cc1ccc(F)cc1)C(=O)c1ccccc1S2(=O)=O)N1CCN(c2ccccn2)CC1`, under setting [1], the half-maximal activity concentration (AC50) was 0.316 µM [falling, single point].

As to `COc1ccccc1CNC(=O)c1cnc2c(-c3ccccc3)c(C)nn2c1C`, the half-maximal activity concentration (AC50) under setting [1] is 31.6 µM [falling, single point].

`O=C(CSc1n[nH]c(-c2ccc(S(=O)(=O)N3CCCCC3)cc2)n1)Nc1nccs1`: under setting [1], the concentration at half-maximal activity (AC50) is 31.6 µM [falling, single point].

As to `COc1ccc(-c2ccc(NS(=O)(=O)c3ccccc3Cl)cc2)nn1`, the AC50 under setting [1] was 10 µM [falling, partial curve].

On to `Cc1ccc2c(c1)CCCN2C(=O)c1c(C)noc1C`, for which, under setting [1], the concentration at half-maximal activity (AC50) is 3.16 µM [falling, partial curve].

`O=C1c2ccccc2C(=O)N1CCCCCc1nc(-c2ccccc2)no1`: under setting [1], the AC50 was 15.8 µM [falling, partial curve].

Turning to `CCOc1ccc(C(c2c(C)[nH]n(-c3ccccc3)c2=O)c2c(C)[nH]n(-c3ccccc3)c2=O)cc1OC`, the concentration at half-maximal activity (AC50) is, setting by setting: (measured here: IkB-luc green channel) 31.6 µM [rising, partial curve]; (measured here: control luc red channel) 39.8 µM [rising, partial curve].

On to `COc1ccc(-c2nsc(NC(=O)c3cccc(OC)c3)n2)cc1`, for which, under setting [1], the AC50 was 0.631 µM [falling, full curve].

With `CCc1ccc(-c2cn3c(n2)sc2cc(C(=O)NCCCc4ccccc4)ccc23)cc1`, the concentration at half-maximal activity (AC50) under setting [1] is 25.1 µM [falling, single point].

For `O=C(Nc1cccc(-c2nc3cc(Cl)ccc3o2)c1)c1ccc(F)cc1`, the AC50 under setting [1] is 20 µM [falling, partial curve, poor fit].

Take `O=C(Cn1c(=O)n(Cc2ccc(F)cc2)c(=O)c2sc3ccccc3c21)NCc1ccccc1`: the AC50 under setting [1] is 2 µM [rising, partial curve].

Consider `Cc1ccc(C)c(Cn2c(C(C)NC(=O)c3ccccc3)nc3ccccc32)c1` (stereo unspecified), for which the AC50 under setting [1] was 7.94 µM [falling, partial curve].

Regarding `COc1cccc(OCc2nc3ccccc3n2C)c1`, under setting [1], the AC50 was 1 µM [rising, full curve].

For `O=C(CCn1cnc2onc(-c3ccc(F)cc3)c2c1=O)N1CCN(c2ccccc2)CC1`, under setting [1], the half-maximal activity concentration (AC50) was 15.8 µM [falling, partial curve].

Take `O=C(CSC1=Nc2ccccc2C2=NC(Cc3ccccc3)C(=O)N12)Nc1ccccc1` (stereo unspecified): the AC50 under setting [1] was 3.16 µM [rising, partial curve].

`CN(Cc1ccccc1)S(=O)(=O)c1ccc(F)c(C(=O)Nc2cc(Cl)cc(Cl)c2)c1`: the concentration at half-maximal activity (AC50) under setting [1] was 25.1 µM [falling, partial curve].

Turning to `O=C(Nc1cc(-c2nc3cc(Cl)ccc3o2)ccc1Cl)c1cc2ccccc2o1`, the half-maximal activity concentration (AC50) under setting [1] was 15.8 µM [falling, partial curve].

As for `CCc1nn2c(=O)cc(COC(=O)c3cccs3)nc2s1`, the concentration at half-maximal activity (AC50) under setting [1] was 3.98 µM [falling, full curve].

Regarding `O=C(Nc1ccc2nn(-c3ccccc3)nc2c1)c1ccc2c(c1)OCCO2`, the concentration at half-maximal activity (AC50) under setting [1] is 2.51 µM [falling, full curve].

`CC(Oc1ccccc1)C(=O)Nc1ccc(C(=O)OCc2cc(=O)n3ccsc3n2)cc1` (stereo unspecified): under setting [1], the AC50 is 31.6 µM [falling, single point].

On to `N#Cc1nc(/C=C/c2ccc(F)cc2)oc1N1CCCCC1`, for which the AC50 under setting [1] was 10 µM [rising, partial curve].

With `Cc1cccc(Nc2cc(C)nc3nc(Cc4ccc(Cl)cc4)nn23)c1`, the AC50 under setting [1] is 31.6 µM [falling, single point].

On to `CCCOc1ccccc1C(=O)Nc1ccc(-c2nc3ccc(C)cc3s2)cc1`, for which, under setting [1], the AC50 was 0.126 µM [rising, full curve].

The values are drawn from PubChem BioAssay AID445 (National Center for Advancing Translational Sciences (NCATS), 2006).
